PubChem BioAssay AID602196, INSERM | 2012
Assay: 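Knock-downs that protect lung cancer cells from cisplatin or sensitise them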. Cell system: human A549 lung cancer cells. Reagents: siRNA pair against human genes. Time to read-out: 48 h transfection before cisplatin; time from cisplatin to read-out not stated. Conditions: cisplatin at a dose killing half of control-siRNA cells; exact dose and duration not given. Read-out: 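Cisplatin cell death as a shift from the 50% death seen with control siRNA; siRNAs toxic or growth-blocking alone scored 0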. Reading the numbers: two-siRNA summed score (-2 to +2): higher = both siRNAs protect from cisplatin killing; -2 means both sensitise. Active means: 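Each siRNA scores 0 if harmful alone by LDH or WST-1, otherwise +1 if it reduces and -1 if it increases cisplatin killing; a gene is active when both siRNAs agree (sum +2 or -2)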. Meaning of the calls: active = both siRNAs shift cisplatin killing the same way; inactive = no consistent shift, or siRNA harmful alone.
This is a random part of about 23,000 reagents tested. In the full data, 455 (2%) were called active. 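Active includes both protection and sensitisation; some change values fall well beyond the stated -50 to +50 range.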 Entries without a mark were called inactive. Reagents against one gene are numbered here. Further read-outs or replicates are left out here. The record does not give: the amount of reagent.

| gene | reagent no. | two-siRNA summed score (-2 to +2) |
| --- | --- | --- |
| MYCLP1 | 1 | -1 |
| ODAD1 | 1 | -1 |
| LOC392501 | 1 | 0 |
| AHRR | 1 | 0 |
| MMP7 | 1 | -1 |
| LOC391733 | 1 | 0 |
| LOC439997 | 1 | 0 |
| RDX | 1 | -1 |
| ZC3H11A | 1 | 0 |
| LOC144762 | 1 | 0 |
| LOC441077 | 1 | 1 |
| KLHL11 | 1 | 0 |
| LOC391105 | 1 | -1 |
| DNPEP | 1 | 0 |
| LOC440409 | 1 | 1 |
| PDZD9 | 1 | 0 |
| OR51B4 | 1 | 0 |
| SDF4 | 1 | 1 |
| GK | 1 | 1 |
| PIK3R1 | 1 | 0 |
| CTU1BP | 1 | -1 |
| KANSL3 | 1 | 0 |
| GHRL | 1 | 0 |
| ZNF768 | 1 | 0 |
| TSPAN10 | 1 | 1 |
| LOC339377 | 1 | 0 |
| LOC441098 (retired record) | 1 | 1 |
| IDI1 | 1 | 0 |
| C20orf202 | 1 | 1 |
| HPS5 | 1 | 0 |
| STUB1-DT | 1 | 0 |
| MYB | 1 | -1 |
| OR2W1 | 1 | 0 |
| TP53RK | 1 | 1 |
| TBCK | 1 | 0 |
| TMEM190 | 1 | 0 |
| RGS20 | 1 | -1 |
| LOC203413 | 1 | 0 |
| GALM | 1 | 0 |
| PPP2R3B | 1 | 0 |
| KIAA1991 | 1 | 1 |
| ECHDC1 | 1 | 0 |
| UACA | 1 | 0 |
| LOC442119 | 1 | 0 |
| BMX | 1 | 0 |
| DROSHA | 1 | 0 |
| IFIT1B | 1 | 0 |
| ZMPSTE24 | 1 | -1 |
| LOC441435 | 1 | 0 |
| LGALS3 | 1 | 0 |
| LGALS3 | 2 | 1 |
| SPANXB1 | 1 | 0 |
| PGM2L1 | 1 | 0 |
| OR2M2 | 1 | 0 |
| LINC00544 | 1 | 1 |
| POFUT2 | 1 | 0 |
| USP11 | 1 | 0 |

A stretch taken from the entries so far:
| gene | reagent no. | two-siRNA summed score (-2 to +2) |
| --- | --- | --- |
| LOC440409 | 1 | 1 |
| PDZD9 | 1 | 0 |
| OR51B4 | 1 | 0 |
